In PubChem BioAssay AID1487 (National Center for Advancing Translational Sciences (NCATS), 2009):
Several values for one entry are separate records, joined by “and”; a condition that tells them apart may be missing. Equal entries are not always repeated. Some of the results follow. The main result of the screen is listed elsewhere. These columns were measured beside it and carry no call. The list favours compounds with an active or inconclusive main result. Words in brackets tell the shape of the fitted curve; partial curves, single points and poor fits give uncertain potencies.

Test: qHTS Assay for Modulators of Lamin A Splicing
Settings: HeLa LMNA splicing GFP/RFP minigene ratio, 48 h
Outline: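 Read-out is the ratio of GFP to DsRed2 object intensity, acquired by 488 nm laser-scanning cytometry on HeLa lamin A-EGFP minigene reporter cells. Compound incubation 48 hrs at 37 °C in Opti-MEM with 2% FBS; DMSO 0.5% final.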

[1] = measured here: GFP splicing reporter channel
[2] = measured here: RFP viability control channel

Row | SMILES | AC50 [1] | AC50 [2]
1 | O=C1c2cccc(O)c2C(=O)c2c(O)cccc21 | 39.8 nM [rising, partial curve, poor fit] and 5.62 µM [falling, partial curve] | 17.8 µM [rising, single point]
2 | O=C(Cc1ccc(Cl)cc1)Nc1ccc(-c2nnc(-c3ccco3)o2)cc1 | 20 µM [rising, single point] | 15.8 µM [rising, single point]
3 | COc1ccc(OC)c(S(=O)(=O)Nc2cnc3ccccc3c2)c1 | – | 6.31 µM [rising, partial curve, poor fit]
4 | O=C(N/N=C/c1ccccc1)c1ccc(CN2C(=O)c3cccc4cccc2c34)cc1 | 28.2 µM [rising, single point] | 35.5 µM [rising, single point]
5 | C=CCn1c(SCC(=O)/C(C#N)=C(\C)N)nc2sc(CC)cc2c1=O | 17.8 µM [rising, single point] | 35.5 µM [rising, single point]
6 | COc1ccc(Nc2nc(-c3ccccc3F)nc3ccccc23)cc1OC | 35.5 µM [falling, partial curve] | 0.0178 µM [falling, full curve, poor fit]
7 | CCCCOc1ccc(CSC2=NCCN2)cc1[N+](=O)[O-] | 35.5 µM [rising, single point] | 35.5 µM [rising, single point]
8 | CCOC(=O)c1sc(NS(=O)(=O)c2ccc(F)cc2)nc1C | 0.126 µM [falling, full curve, poor fit] | 0.158 µM [falling, full curve, poor fit]
9 | CC1=NN(c2ccccc2)C(=O)/C1=C\c1ccc(Oc2ccc([N+](=O)[O-])cc2[N+](=O)[O-])cc1 | – | 7.94 µM [rising, partial curve]
10 | Cc1noc(-c2ccc(-c3noc(-c4ccc(C(F)(F)F)cc4)n3)cc2)n1 | 0.02 µM [falling, full curve, poor fit] | 0.0501 µM [falling, full curve, poor fit]
11 | CC(=O)c1cccc(S(=O)(=O)NC2CC2)c1 | – | 12.6 µM [rising, partial curve]
12 | O=C(CCCl)N(Cc1nc2ccccc2c(=O)[nH]1)Cc1cccs1 | – | 0.0112 µM [rising, full curve, poor fit]
13 | COc1ccccc1N1CCN(C(=O)C(Sc2ccccc2)c2ccccc2)CC1 (configuration not stated) | – | 15.8 µM [rising, partial curve, poor fit]
14 | O=C(Nc1ccn(Cc2ccccc2F)n1)c1ccc(COc2cccc(Br)c2)cc1 | – | 25.1 µM [rising, single point]

Three compounds out of the list, arranged by count of non-hydrogen atoms, smallest number first:
Row | SMILES | AC50 [1] | AC50 [2]
3 | COc1ccc(OC)c(S(=O)(=O)Nc2cnc3ccccc3c2)c1 | – | 6.31 µM [rising, partial curve, poor fit]
5 | C=CCn1c(SCC(=O)/C(C#N)=C(\C)N)nc2sc(CC)cc2c1=O | 17.8 µM [rising, single point] | 35.5 µM [rising, single point]
14 | O=C(Nc1ccn(Cc2ccccc2F)n1)c1ccc(COc2cccc(Br)c2)cc1 | – | 25.1 µM [rising, single point]
